Measured values from publication PMC9895073.
The exact form of at least one protein or probe is not confirmed. Weaker means in comparison with the reference protein, sequence or condition of that experiment. At least one verdict rests on a figure or table, not on a statement of the authors.

Chains of the proteins cited; added tags and fusions are not shown.
UniProt P05412, whole entry: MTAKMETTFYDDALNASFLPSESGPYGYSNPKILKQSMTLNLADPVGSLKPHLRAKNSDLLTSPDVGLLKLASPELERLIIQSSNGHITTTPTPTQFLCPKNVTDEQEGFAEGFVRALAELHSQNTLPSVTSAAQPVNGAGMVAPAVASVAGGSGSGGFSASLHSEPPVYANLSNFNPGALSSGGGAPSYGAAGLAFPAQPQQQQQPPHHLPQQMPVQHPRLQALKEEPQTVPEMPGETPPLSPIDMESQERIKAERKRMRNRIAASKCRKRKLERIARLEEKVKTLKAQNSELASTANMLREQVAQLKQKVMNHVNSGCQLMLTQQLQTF

Biological target: JUN (3xGluGlu-JUN-His6) (UniProt P05412)
Assay: EMSA
Conditions: 50 nM DNA, 20 mM Tris/HCl pH 7.4, 40 mM KCl, 5 mM MgCl2, 5% glycerol, 1 h at 37 °C, 6% PAGE in 0.25x TBE, recombinant protein, protein details: N-terminal 3xGluGlu, label: 5'-Cy5 on upper strand

Sequence	binding result (m6dA in both strands, N6-methyl-dA at position 18 of upper strand and position 18 of lower strand)	binding result
AAGAGACCAAAGGAATGAGTCATTGGAAATGCTGAGA (double strand) [JUN site 37mer, m6dA in both strands]	binds more weakly	
AAGAGACCAAAGGAATGAGTCATTGGAAATGCTGAGA (double strand) [JUN site 37mer, unmethylated]		binds
